Laboratory results taken from the supplement of paper PMC8104966.
The other results are listed elsewhere or left out. This data set is noisy: repeats of one test often differ as much as different tests do.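 U2OS cells expressing ACE2 were combined with U2OS cells expressing full-length spike, and imaging quantified fusion as the fraction of nuclei displaying both cell types' fluorescent markers. Non-toxic compounds with a fusion z-score under -3, i.e., over three standard deviations below the plate's DMSO wells, are called inhibitory hits.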

test system: U2OS ACE2 x SARS-CoV-2 spike co-culture; assay: cell-cell fusion (fraction fused) z-score vs plate DMSO control; higher = more fusion; settings: 30 µM; 5 h; toxicity class: non-toxic, passed QC

Row | Structure (SMILES) | cell-cell fusion (z-score)
1 | Nc1ccn([C@@H]2O[C@H](CO)[C@@H](O)[C@H]2O)c(=O)n1 [Cytarabine] | inactive: 0.642
2 | CCCCCCCC(=O)N[C@H](CN1CCCC1)[C@H](O)c1ccc2c(c1)OCCO2 [Eliglustat] | inactive: 1.69
3 | Oc1ccc(Cl)cc1 | inactive: 1.26
4 | C[C@H]1COc2c(N3CCN(C)CC3)c(F)cc3c(=O)c(C(=O)O)cn1c23 [Levofloxacin] | inactive: 1.74
5 | CC(C(=O)O)c1ccc(N2Cc3ccccc3C2=O)cc1 (configuration not stated) | inactive: -0.362
6 | COc1ccc2c(c1OC)C(=O)O[C@H]2[C@@H]1c2cc3c(cc2CCN1C)OCO3 [(+)-Hydrastine] | inactive: 2.64
7 | C[C@H](CCC(=O)[O-])[C@H]1CCC2C3C(=O)CC4CC(=O)CC[C@]4(C)C3CC(=O)[C@@]21C.[Na+] (some centres not stated) | inactive: 2.17
8 | CCCN(CCC)C(=O)C(CCC(=O)O)NC(=O)c1ccccc1 (configuration not stated) [Proglumide] | inactive: 2.82
9 | CCCN(CCC)C(=O)C(CCC(=O)O)NC(=O)c1ccccc1 (configuration not stated) | inactive: 0.781
10 | COc1cc(C=O)cc(OC)c1OC | inactive: 2.26
11 | CSCC[C@H](N)C(=O)O [L-Methionine] | inactive: 1.74
12 | C=C1CCN([C@H](C)[C@](O)(Cn2cncn2)c2ccc(F)cc2F)CC1 [Efinaconazole] | inactive: 2.07
13 | Nc1ccncc1 [4-Aminopyridine] | inactive: 2.02
14 | Nc1ccncc1 | inactive: 2.74
15 | Cc1nc2c([nH]1)c(=O)n(C)c(=O)n2Cc1ccco1 [Furafylline] | inactive: -1.49
16 | CCCN[C@H]1CCc2nc(N)sc2C1.Cl.Cl.O [Pramipexole 2HCl Monohydrate] | inactive: 2.05
17 | CC(=O)[C@H]1CCC2[C@@H]3CCC4C[C@H](O)CC[C@]4(C)C3CC[C@@]21C (some centres not stated) | inactive: 2.2
18 | COc1ccc2cc(CCC(C)=O)ccc2c1 | inactive: 3.38
19 | COc1cc(/C=C(\C#N)C(=O)Nc2nnc(C(F)(F)F)s2)ccc1OCc1ccc(C(F)(F)F)cc1C(F)(F)F | inactive: 1.87
20 | CCCOc1ccccc1-c1nc(=O)c2nn[nH]c2[nH]1 [Zaprinast] | inactive: 1.17
21 | Cl.c1ccc2sc(C3(N4CCCCC4)CCCCC3)cc2c1 [BTCP hydrochloride] | inactive: 3.82
22 | C[C@H](CCC(=O)NCCS(=O)(=O)[O-])[C@H]1CC[C@H]2[C@@H]3[C@H](O)C[C@@H]4C[C@H](O)CC[C@]4(C)[C@H]3C[C@H](O)[C@]12C.O.[Na+] [Taurocholic acid sodium salt hydrate] | inactive: 1.95
23 | CCCCOc1c(C(=O)c2c(F)cc(C)cc2F)cnc2[nH]ncc12 | inactive: 1.42
24 | CNNC.Cl.Cl | inactive: 2.13

Two records picked at random from those above, as already listed:
Row | Structure (SMILES) | cell-cell fusion (z-score)
16 | CCCN[C@H]1CCc2nc(N)sc2C1.Cl.Cl.O [Pramipexole 2HCl Monohydrate] | inactive: 2.05
20 | CCCOc1ccccc1-c1nc(=O)c2nn[nH]c2[nH]1 [Zaprinast] | inactive: 1.17

Further results.

Row | Structure (SMILES) | cell-cell fusion (z-score)
25 | C=C[C@H]1C[N@@]2CC[C@H]1C[C@@H]2[C@@H](OC(=O)OCC)c1ccnc2ccc(OC)cc12 | inactive: 2.48
26 | NC1(C(=O)N[C@@H](CCO)c2ccc(Cl)cc2)CCN(c2ncnc3[nH]ccc23)CC1 | inactive: 0.277
27 | NC(=O)N/N=C/c1ccc([N+](=O)[O-])o1 [Furacilin] | inactive: 3.26
28 | CCCCCC(=O)Cc1cc(O)cc(O)c1C(=O)Oc1cc(CC(=O)CCCCC)c(C(=O)O)c(OC)c1 | inactive: 2.55
29 | Cl.O=C(O)C1=CCNCC1 [Isoguvacine hydrochloride] | inactive: 3.15
30 | Cl.Cl.O=C(O)COCCN1CCN(C(c2ccccc2)c2ccc(Cl)cc2)CC1 (configuration not stated) [Cetirizine dihydrochloride] | inactive: 2.12
31 | CC1=C(/C=C/C(C)=C/C=C/C(C)=C/C(=O)Nc2ccc(O)cc2)C(C)(C)CCC1 [Retinoic acid p-hydroxyanilide] | inactive: 3.32
32 | CCCCNc1cc(C(=O)O)cc(S(N)(=O)=O)c1Oc1ccccc1 | inactive: 2.71
33 | Cc1n[nH]c2ccc(-c3cncc(OC[C@@H](N)Cc4ccccc4)c3)cc12 | inactive: -0.138
34 | O=P([O-])(O)C(O)(Cc1cccnc1)P(=O)(O)O.[Na+] | inactive: 2.08
35 | Cc1[nH]c2ccc(O)cc2c1CCN.O=C(O)/C=C\C(=O)O [2-Methyl-5-hydroxytryptamine maleate] | inactive: 3.59
36 | CC(=O)O[C@H]1C[C@@H](OC(C)=O)C(C)(C)C2CC(=O)[C@]3(C)C(CC[C@@]4(C)[C@H](C(=O)O)OC(=O)C5OC543)[C@]21C (some centres not stated) | inactive: 2.16
37 | O=C(O)CCC(C(=O)O)N1C(=O)c2ccccc2C1=O [L-Glutamic acid, N-phthaloyl-] | inactive: 1.09
38 | Br.COc1ccccc1N1CCN(CCCCN2C(=O)c3ccccc3C2=O)CC1 [NAN-190 hydrobromide] | inactive: 1.5
39 | CC1C/C=C/C=C/C=C/C=C/C(O[C@@H]2O[C@H](C)[C@@H](O)[C@H](N)[C@@H]2O)CC2OC(O)(CC(O)CC3OC3/C=C/C(=O)O1)CC(O)C2C(=O)O.NCCO (some centres not stated) | inactive: 1.02
40 | C=CCNc1ncnc2ccc(Br)cc12 | inactive: 0.853
41 | CC(O)(CC(=O)O)CC(=O)O | inactive: 2.4
42 | O=c1[nH]cc(F)c(=O)[nH]1 | inactive: 2.15
43 | O=c1[nH]cc(F)c(=O)[nH]1 [5-Fluorouracil] | inactive: 2.54
44 | COC[C@H]1OC(=O)c2coc3c2[C@@]1(C)C1=C(C3=O)[C@@H]2CCC(=O)[C@@]2(C)C[C@@H]1OC(C)=O [Wortmannin] | inactive: 0.254
45 | CCn1cc(C(=O)[O-])c(=O)c2ccc(C)nc21.[Na+] [Nalidixic acid sodium] | inactive: 2.15
46 | CCCNC(C)C(=O)Nc1c(C)csc1C(=O)OC.Cl (configuration not stated) [Articaine HCl] | inactive: 3.66
47 | CC(=O)[C@H]1CCC2C3CCC4=CC(=O)CC[C@]4(C)C3[C@H](OC(=O)CCC(=O)O)C[C@@]21C (stereo partly drawn) [11alpha-HYDROXYPROGESTERONE HEMISUCCINATE] | inactive: 2.44
